# Test results taken from PubChem BioAssay AID1347075 (National Center for Advancing Translational Sciences (NCATS), 2019).
# The campaign covered roughly 400,000 compounds. About 5,500 (1.4%) were called active. Inconclusive means that the source gave no clear call. Such entries were picked first, then a sample of the others. The call rests on the fitted dose curve; in most records, active means well fitted cell-killing curve with a large enough effect; inconclusive means small, poorly fitted or top-dose-only effect, or effect the other way; inactive means flat fitted curve, though single readings scatter. Potencies beside an inconclusive call are fits to weak or partial responses and may not hold up.
# Assay: qHTS assay for MDR1-selective chemotherapeutics: Primary screen using the parental adenocarcinoma cell KB-3-1; further: nearly all actives have a fitted effect of over 60% in size
# Conditions: KB-3-1 viability, CellTiter-Glo ATP luminescence, 72 h; activity change, negative = cytotoxic: at 46.1 µM (top of the series)
# In short: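 Using CellTiter-Glo luminescence, growth of non-resistant KB-3-1 adenocarcinoma cells is assessed 72 h after pin-tool compound addition at 37 °C. Normalized responses across the concentration series yield fitted curves.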
# On the % scale 0 is the no-effect control and ±100 the full control effect; potency means the concentration at half of the fitted maximal effect.
Structure (SMILES),Potency,"activity change, negative = cytotoxic"
CC(=O)c1c(C)oc2ccc(N(C(=O)c3ccncc3)S(=O)(=O)c3ccc(C)cc3C)cc12,"inconclusive: 20.6 µM [cytotoxic, partial curve, poor fit]",–
COc1ccc(/C=C/C(=O)C(C(N)=O)=C2SCCS2)cc1,"inconclusive: 29.1 µM [cytotoxic, single point]",–
O=c1c2nncn2c2cccnc2n1CCNc1ncc(C(F)(F)F)cc1Cl,"inconclusive: 29.1 µM [cytotoxic, single point]",–
COc1ccc(-c2ccc(=O)n(CC(=O)NCCc3ccccc3)n2)cc1,inactive,–
Fc1ccc2c(c1)C(c1cccnc1)=NNC(c1cccs1)=N2,"inconclusive: 18.4 µM [cytotoxic, single point]",–
CCOC(=O)c1[nH]c2cc(OC)c(OC)cc2c1N,"inconclusive: 13 µM [rising, partial curve, poor fit]",–
O=S(=O)(N/N=C1/CC(c2ccccc2)Oc2ccccc21)c1ccc(Br)cc1 (stereo not given),active: 18.4 µM,–
Cc1ccc(-c2noc(C3CCCN(C(=O)c4ccccc4Br)C3)n2)cc1 (stereo not given),"inconclusive: 29.1 µM [cytotoxic, single point]",–
CCCCN(CCCC)C(=O)CSc1nnc(-c2cc(OC)c(OC)c(OC)c2)o1,"inconclusive: 22.4 µM [cytotoxic, single point]",–
Cc1cc(C)cc(Nc2cc(C(=O)NCc3ccccc3)c3ccccc3n2)c1,"inconclusive: 25.9 µM [cytotoxic, single point]",–
COc1ccc(CNC(=O)C(c2cccs2)N(Cc2ccco2)C(=O)Cc2cccs2)cc1 (stereo not given),"inconclusive: 29.1 µM [cytotoxic, single point]",–
COc1ccc(/C=C2/SC(=O)N(CCNC(=O)C3CC(=O)N(Cc4ccccc4)C3)C2=O)cc1 (stereo not given),inactive,–
O=C(c1ccccc1F)N1CCC2CC1c1cc(-c3ccc4c(c3)OCO4)ccc12 (stereo not given),"inconclusive: 29.1 µM [cytotoxic, single point]",–
O=S(=O)(c1ccc(OCC2CO2)cc1)c1ccc(OCC2CO2)cc1 (stereo not given),inactive,–
Nc1nc(Nc2ccccc2)nc2ccccc12,"inconclusive: 16.4 µM [cytotoxic, partial curve]",–
CCOC(=O)[C@]12CCCC=C1N(Cc1cccc3ccccc13)C(=O)[C@H](CC(=O)NCCc1ccccc1OC)C2,"inconclusive: 23.1 µM [cytotoxic, single point]",–
NC(=S)NN=C1CCCCCCCCCC1,"inconclusive: 29.1 µM [cytotoxic, single point]",–
CN1N=C(C(C)(C)C)CC1=O,inactive,–
O=C(O)c1ccc2c(=O)n3c(nc2c1)/C(=C/c1ccccc1C(F)(F)F)CCCC3,"inconclusive: 32.6 µM [rising, partial curve, poor fit]",–
CN(C)c1nc2c(c(=O)[nH]c(=O)n2C)n1CCOc1ccccc1,"inconclusive: 8.2 µM [cytotoxic, partial curve]",–
CCC(C)(C)NC(=O)CN(C(=O)CNS(=O)(=O)c1ccc(F)cc1)c1ccc2c(c1)OCCO2,inactive,–
CCOC(=O)c1ccc(-c2ccc(/C=C(\C#N)C(=O)Nc3ccc(C)cc3OC)o2)cc1,inactive,–
Cc1csc2ncnc(N3CCN(C(=O)Nc4ccc(OC(F)(F)F)cc4)CC3)c12,"inconclusive: 14.6 µM [cytotoxic, partial curve]",–
COc1ccc(N(C)S(=O)(=O)c2cccc(C(=O)Nc3cccc(C(=O)NC4CC4)c3)c2)cc1,"inconclusive: 20.6 µM [cytotoxic, single point]",–

Structure (SMILES),Potency,"activity change, negative = cytotoxic"
O=S1(=O)CCO[C@H]2Cc3ccccc3[C@H]2N1Cc1cccc(F)c1,inactive,–
c1ccc(OCCCn2ccnc2)cc1,inactive,–
Cc1ccc(CN(Cc2ccco2)C(=O)c2oc3ccc(C)cc3c2C)cc1,inactive,–
Fc1ccccc1CSc1ncnc2c1ncn2C1CCCO1 (stereo not given),"inconclusive: 11.6 µM [cytotoxic, partial curve]",–
O=C(COc1cccc(Cl)c1)Nc1cc(S(=O)(=O)N2CCOCC2)ccc1N1CCOCC1,inactive,–
O=S(=O)(Nc1cccc(S(=O)(=O)N2CCCCCC2)c1)c1ccc(F)cc1F,–,inconclusive: -67.1%
CCN1C(=O)[C@H]2[C@@H](c3ccc(C)cc3)N3C(=O)N(c4cccc(Cl)c4)C(=O)[C@@]3(C)[C@H]2C1=O,inactive,–
CC(c1ccccc1)N1CC(C(=O)N2CCCC(C(N)=O)C2)CC1=O (stereo not given),inactive,–
CC(=Nc1ccccc1)C1=C(O)C(Cc2ccc(O)cc2)NC1=O (stereo not given),active: 0.206 µM,–
CCOC(=O)c1nnn(CC(=O)N2N=C(c3ccccc3)CC2c2ccccc2)c1C(=O)OCC (stereo not given),inactive,–
O=C(COc1cccc(F)c1)Nc1nc(-c2ccccn2)cs1,"inconclusive: 8.2 µM [cytotoxic, partial curve, poor fit]",–
Cc1ccc(S(=O)(=O)N2CCN(C(=O)COC(=O)c3ccccc3OC(F)F)CC2)c(C)c1,inactive,–
CCOC(=O)c1c(Cl)c(C)nn1-c1nc(OC)cc(OC)n1,"inconclusive: 8.2 µM [rising, partial curve]",–
Cc1c(-c2ccc(OCc3ccccc3)cc2)nc2ccccc2c1C(=O)O,"inconclusive: 29.1 µM [cytotoxic, single point]",–
S=C(NCc1ccco1)N1CCN(c2nc(-c3ccc(Cl)cc3)cs2)CC1,"inconclusive: 20.6 µM [cytotoxic, single point]",–
CCOc1ccc2c(c1)C(C)=CC(C)(C)N2S(=O)(=O)c1ccc(NC(C)=O)cc1,active: 1.64 µM,–
COc1cccc(NC(=O)c2c(C(=O)Nc3ccccc3)sc3nc(C)cc(=O)n23)c1,inactive,–
COc1ccc(N2CCN(C(=O)CCCSc3nc4ccccc4[nH]3)CC2)cc1,inactive,–
COc1cc(C2c3c(-c4cc(C)cc(C)c4O)n[nH]c3C(=O)N2CCCO)cc(OC)c1OC (stereo not given),inactive,–
CC(NC(=O)C(=O)N1CCOCC1)C(c1cccs1)N1CCN(c2ccccc2F)CC1 (stereo not given),inactive,–
Oc1ccc(C=NN=C2c3ccccc3-c3ccccc32)c(O)c1,"inconclusive: 20.6 µM [cytotoxic, single point]",–
Cc1ccc(S(=O)(=O)N2CCC(=O)N([C@H](COCc3ccc(Cl)cc3)C(C)C)CC2)cc1,"inconclusive: 23.1 µM [cytotoxic, single point]",–
O=C(Nc1cc(Sc2nc3ccccc3s2)cc([N+](=O)[O-])c1)c1ccccc1,"inconclusive: 18.4 µM [cytotoxic, single point]",–
O=C1OCC2=C1C(c1ccc3c(c1)OCO3)c1cc3c(cc1O2)OCO3 (stereo not given),active: 3.26 µM,–

Structure (SMILES),Potency,"activity change, negative = cytotoxic"
CC1(OC(=O)C2CCCC2)C(=O)C=C2C=C(c3ccsc3)N(C3CCCCC3)C=C2C1=O (stereo not given),active: 20.6 µM,–
COc1ccc(-c2c(C#Cc3ccsc3)c3ccccc3n2C)cc1,"inconclusive: 16.4 µM [cytotoxic, single point]",–
CN(C)CC1CCC/C(=C/c2ccc(Cl)cc2)C1=O (stereo not given),"inconclusive: 29.1 µM [cytotoxic, single point]",–
CC(C)Cc1ccc(C(C)C(N)=NCCc2ccccc2)cc1 (stereo not given),"inconclusive: 18.4 µM [cytotoxic, single point]",–
Cc1cccc(C)c1NC(=O)CN(C)C(=O)c1cccc(S(=O)(=O)N2CCN(c3ccc(F)cc3)CC2)c1,"inconclusive: 23.1 µM [cytotoxic, single point]",–
Cc1ccc(SCCNC(=S)Nc2ccc(C)c(C)c2)cc1,"inconclusive: 20.6 µM [cytotoxic, partial curve, poor fit]",–
CCCCn1c(N)c(N(CCOC)C(=O)CSCC(=O)Nc2cccc(C)c2)c(=O)[nH]c1=O,"inconclusive: 29.1 µM [rising, single point]",–
CCn1c(CN2CCCCC2)nc2cc(NC(=O)c3ccc([N+](=O)[O-])cc3)ccc21,inactive,–
CCc1nnc(NS(=O)(=O)c2ccc(NC(=S)NC(=O)c3cccs3)cc2)s1,"inconclusive: 29.1 µM [rising, single point]",–
COC(=O)c1c(NC(=O)/C=C/C(=O)O)sc(C)c1-c1ccc(C)c(C)c1,"inconclusive: 32.6 µM [cytotoxic, single point]",–
Cc1nc(NCC(=O)c2c[nH]c3ccccc23)sc1C,"inconclusive: 29.1 µM [rising, partial curve, poor fit]",–
O=C(Nc1ccccc1F)c1ccc(CN2CCc3ccccc3C2)cc1,active: 9.2 µM,–
Cc1ccc(CNC(=O)C(=O)NCC(c2cccnc2)N2CCN(c3ccccc3F)CC2)cc1 (stereo not given),"inconclusive: 6.51 µM [cytotoxic, partial curve]",–
CC1CCN(CC(=O)Nc2ccc3c(c2)OCO3)CC1,inactive,–
O=C(NCC1CCCO1)C(c1ccncc1)N(Cc1cccs1)C(=O)Cn1nnc(-c2ccc(F)cc2)n1 (stereo not given),inactive,–
CCCN(CCC)S(=O)(=O)c1ccc(NC(=O)c2cc(C(=O)OC)cc([N+](=O)[O-])c2)cc1,inactive,–
COc1ccc(C(c2nnnn2C2CCCC2)N2CCC(C)CC2)c(OC)c1 (stereo not given),"inconclusive: 20.6 µM [cytotoxic, partial curve, poor fit]",–
CCc1ccc(C2NC(=O)c3[nH]nc(-c4cccc(OC)c4)c32)cc1 (stereo not given),inactive,–
O=C(NCc1ccco1)C1CC(c2cc(C(F)(F)F)cc(C(F)(F)F)c2)=NO1 (stereo not given),active: 4.11 µM,–
Cc1ccc(C(=O)Nc2nc(-c3ccccc3)ns2)cc1,"inconclusive: 9.2 µM [cytotoxic, partial curve]",–
COc1ccc(CNC(=O)C2Cc3c(-c4ccc5c(c4)OCO5)ccnc3O2)cc1OC (stereo not given),active: 20.6 µM,–
COc1ccc(CCc2ccnc3ccccc23)cc1,"inconclusive: 25.9 µM [cytotoxic, single point]",–

# An excerpt of the results above:
Structure (SMILES),Potency,"activity change, negative = cytotoxic"
CCn1c(CN2CCCCC2)nc2cc(NC(=O)c3ccc([N+](=O)[O-])cc3)ccc21,inactive,–
CCc1nnc(NS(=O)(=O)c2ccc(NC(=S)NC(=O)c3cccs3)cc2)s1,"inconclusive: 29.1 µM [rising, single point]",–
COC(=O)c1c(NC(=O)/C=C/C(=O)O)sc(C)c1-c1ccc(C)c(C)c1,"inconclusive: 32.6 µM [cytotoxic, single point]",–
Cc1nc(NCC(=O)c2c[nH]c3ccccc23)sc1C,"inconclusive: 29.1 µM [rising, partial curve, poor fit]",–
